Experimental data taken from patent US20230272378A1, “ENCODING AND EXPRESSION OF ACE-tRNAs” (University of Rochester, priority 2020, published 2023).
For at least one compound, name, drawing or mass did not settle the structure.

Test system: PTC readthrough reporter piggyBac transgene (mNeonGreen)
Assay: mNeonGreen PTC readthrough reporter fluorescence in R1162X 16HBE14ge- cells
Format: cell-based, human
Settings: G418 100 uM or plasmid transfection

SMILES: CN[C@@H]1[C@@H](O)[C@@H](O[C@@H]2[C@@H](O)[C@H](O[C@H]3O[C@H]([C@@H](C)O)[C@@H](O)[C@H](O)[C@H]3N)[C@@H](N)C[C@H]2N)OC[C@]1(C)O [G418]
- PTC suppression, generation of full length mNeonGreen protein: did not support robust PTC suppression
